Measured values as given in US10426772B2, “Use of ergot alkaloids as an anthelmintic agent” (priority 2016, dated 2019).
For part of these data: At least one read-out could not be matched to a standard name with certainty. For part of these data: For at least one compound, name, drawing or mass did not settle the structure.

Amino acid sequences for entries named in this document (tags omitted).
UniProt G4V5G4, entry or part of it: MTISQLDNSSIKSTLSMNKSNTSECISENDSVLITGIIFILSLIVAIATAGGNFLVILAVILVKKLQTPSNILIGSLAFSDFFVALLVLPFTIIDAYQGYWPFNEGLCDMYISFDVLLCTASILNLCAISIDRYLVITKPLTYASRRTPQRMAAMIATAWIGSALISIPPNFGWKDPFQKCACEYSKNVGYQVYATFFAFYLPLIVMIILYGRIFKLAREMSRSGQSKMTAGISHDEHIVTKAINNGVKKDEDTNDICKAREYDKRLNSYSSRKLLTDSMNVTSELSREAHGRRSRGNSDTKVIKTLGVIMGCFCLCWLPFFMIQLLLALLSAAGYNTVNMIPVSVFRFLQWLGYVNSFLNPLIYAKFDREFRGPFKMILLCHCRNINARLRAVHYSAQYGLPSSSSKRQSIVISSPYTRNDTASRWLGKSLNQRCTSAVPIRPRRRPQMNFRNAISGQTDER

Columns and labels:
[1] = biological target: T1, Sm.5HTR (Schistosoma mansoni, UniProt G4V5G4); format: cell-based; settings: for persistence of Sm.5HTR inhibition after antagonist wash-out: 10 μM for 30 minutes, washout, 5-HT response 1 hour later (FIGS. 11B-D); for acute inhibition of Sm.5HTR function: antagonist 10 μM, 5-HT 10 μM (FIG. 11A)
Experimental: Colors correspond to drug identity in C&D. Data represent mean±s.e.m., n=3 (C-E).
To test putative irreversible antagonists, assays on suspension cells were performed one day post transfection. Cells in a T-75 flask were trypsinized (0.25% w/v) and transferred to a 14 mL tube, centrifuged at 300 RCF, and resuspended in HBSS supplemented with 0.1% BSA, 20 mM HEPES. Compounds were added at 10 μM, and after 30 minutes incubation at room temperature cells were centrifuged (300 RCF, 5 minutes) and resuspended in fresh media. This wash step was repeated, and cells were resuspended in HBSS supplemented with 0.1% BSA, 20 mM HEPES and GloSensor reagent. […]

[2] = system: adult schistosomes; test: Adult schistosome mobility assay (Example 1); format: cell-based, Schistosoma mansoni
[3] = biological target: T1, Sm.5HTR; format: cell-based
Experimental: HEK293 cells (ATCC CRL-1573.3) were cultured in DMEM supplemented with 10% fetal bovine serum (FBS), penicillin (100 units/mL), streptomycin (100 μg/mL), and L-glutamine (290 μg/mL). Cells were transiently transfected (ViaFect, Promega) as per the manufacturer's protocol at a density of 2×10^6 cells per T-25 cell-culture flask. Cells were transfected with plasmids encoding GloSensor (Promega) and either Sm.5HTR, (Smp_126730, GenBank accession number KF444051.1) or Sm.5HTRL (KX150867), both GPCRs being codon optimized for mammalian expression, or Hs.5HT7a (GenBank accession number NM_000872.4, R&D Systems) subcloned into pCS2(−). Cell culture reagents were from Invitrogen. Epitope tagged constructs were used to verify expression, and untagged constructs used for all luminescence assays.
For assays performed on adherent cells, HEK-293 cells were transferred one day post transfection to 96 well, solid white plates (Corning, cat #3917) coated with 0.01% poly-L-lysine (Sigma Aldrich) at a density of 5×10^4 cells/well in DMEM supplemented with 1% dialyzed FBS (Gibco). After overnight culture (37° C./5% CO2), media was decanted and replaced with 100 μL/well HBSS supplemented with 0.1% BSA, 20 mM HEPES (pH 7.4) and GloSensor™ reagent. Plates were allowed to equilibrate at room temperature for two hours prior to performing luminescence assays (GloMax-Multi Detection System plate reader, Promega). Conditions for individual assays were described as per figure legends. The standard assay to detect changes in cAMP utilized the F22 sensor in media supplemented with IBMX (200 μM). […] For the resazurin reduction assay for cellular viability, cells were incubated with resazurin (final concentration, 10 μM) and tested ligands with fluorescence measurements (560 nm excitation/590 nm emission) made at 1.5 hours intervals.
The protocol for screening is shown schematically in FIG. 5A. […] Luminescence was then read at a fixed time point (t=60 minutes, FIG. 5A). Hits were assigned as compounds that evoked a ≥50% decrease in luminescence output at the fixed time sampling point (FIG. 5B).

[4] = system: planarian flatworm D. japonica; settings: regenerating planarians; cited from earlier work
[5] = system: adult S. mansoni; test: Movement assay of cultured adult S. mansoni (Example 2); format: cell-based, Schistosoma mansoni; design: unit not given beside the values; settings: adult S. mansoni in vitro
Excerpt: Female Swiss Webster mice infected with S. mansoni cerceria (NMRI strain) were sacrificed 49 days post infection by CO2 euthanasia. Adult schistosomes were recovered by perfusion with a solution of 0.85% sodium chloride+0.75% sodium citrate and dissection of the mesenteric vasculature. Harvested schistosomes were washed in RPMI 1640 Medium with GlutaMAX+5% heat inactivated FBS (Gibco) and Penicillin-Streptomycin (final concentration 100 units/mL, ThermoFisher cat #15140122).
For movement assays, worms were cultured 37° C./5% CO2 in vented 100×25 mm petri dishes (ThermoFisher cat #4031) containing 50 mL of media and used between 1-3 days after harvesting. Prior to assessing worm movement, individuals were transferred to a six well dish (4-5 individuals per well) containing 3 mL drug solution in RPMI 1640 supplemented with HEPES (25 mM) and MS (5%). Videos were recorded using a Zeiss Discovery v20 stereomicroscope and a QiCAM 12-bit cooled color CCD camera controlled by metamorph imaging software (version 7.8.1.0). 1 minute recordings were acquired at 4 frames per second, saved as a .TIFF stack, and movement was analyzed using ImageJ software as described in (PMID: 27187180, PMID: 27397763).

CC(C)C[C@H]1C(=O)N2CCC[C@H]2[C@]2(O)O[C@](NC(=O)[C@@H]3C=C4c5cccc6[nH]c(Br)c(c56)C[C@H]4N(C)C3)(C(C)C)C(=O)N12 [bromocriptine]
persistence of Sm.5HTR inhibition after antagonist wash-out [1]: persisted after antagonist wash-out
acute inhibition of Sm.5HTR function [1]: acutely inhibited Sm.5HTR function
effect on 5-HT stimulated movement of adult worms ([2]; 5-HT 100 μM, male and female worms (FIG. 15G-I)): inhibited the 5-HT evoked increases in worm movement
effect on basal movement of adult worms ([2]; no 5-HT, male and female worms (FIG. 15D-F)): markedly inhibited worm movements at rest
inhibition of 5-HT evoked cAMP generation at higher concentrations ([3]; >10 μM): almost complete inhibition
agonist efficacy at Sm.5HTR, in words ([3]; FIG. 10A): no efficacy
nature of antagonism: right-shift in the 5-HT dose-response relationship ([3]; increasing doses of ligand, FIGS. 10B-D): competitive antagonism
concentrations evoking bipolarity, less than PZQ [4]: 100 fold

CN1CCN(C2=Nc3cc(Cl)ccc3Nc3ccccc32)CC1 [clozapine]
persistence of Sm.5HTR inhibition after antagonist wash-out [1]: but not

CN1CCC(=C2c3ccccc3C=Cc3ccccc32)CC1 [cyproheptadine]
persistence of Sm.5HTR inhibition after antagonist wash-out [1]: fully reversed
acute inhibition of Sm.5HTR function [1]: acutely inhibited Sm.5HTR function

CN1C[C@H](C(=O)N[C@]2(C)O[C@@]3(O)[C@@H]4CCCN4C(=O)[C@H](Cc4ccccc4)N3C2=O)C=C2c3cccc4[nH]cc(c34)C[C@H]21 [ergotamine]
EC50 for stimulating movement, more potent than 5-HT [5]: > 1000 ×
